Data as given in PMC11648244, “Substrate specificity and kinetic mechanism of 3β-hydroxy- Δ ^5-C27-steroid oxidoreductase” (The Journal of Biological Chemistry, 2024).
These are yes or no findings as the source states them, for the method shown.

Assays:
[1] = molecular target: 3β-hydroxy-Δ5-C27-steroid oxidoreductase (HSD3B7), wild type (human) (UniProt Q9H2F3); assay: cross-linking; chemical crosslinking in solution, bands on a gel; both purified
[2] = molecular target: 3β-hydroxy-Δ5-C27-steroid oxidoreductase (HSD3B7), wild type (human) (UniProt Q9H2F3); assay: native gel or EMSA; native-PAGE of the purified constructs; both purified
[3] = molecular target: 3β-hydroxy-Δ5-C27-steroid oxidoreductase (HSD3B7), wild type (human) (UniProt Q9H2F3); assay: mass photometry; Refeyn TwoMP; sample diluted in its reaction buffer to 100 nM, in drop to 20 nM final; protein associated with DDM micelles; both purified

B1: 3β-hydroxy-Δ5-C27-steroid oxidoreductase (HSD3B7), wild type (enzyme, UniProt Q9H2F3 1-369)
chain: MADSAQAQKLVYLVTGGCGFLGEHVVRMLLQREPRLGELRVFDQHLGPWLEELKTGPVRVTAIQGDVTQAHEVAAAVAGAHVVIHTAGLVDVFGRASPKTIHEVNVQGTRNVIEACVQTGTRFLVYTSSMEVVGPNTKGHPFYRGNEDTPYEAVHRHPYPCSKALAEWLVLEANGRKVRGGLPLVTCALRPTGIYGEGHQIMRDFYRQGLRLGGWLFRAIPASVEHGRVYVGNVAWMHVLAARELEQRATLMGGQVYFCYDGSPYRSYEDFNMEFLGPCGLRLVGARPLLPYWLLVFLAALNALLQWLLRPLVLYAPLLNPYTLAVANTTFTVSTDKAQRHFGYEPLFSWEDSRTRTILWVQAATGSAQ
- binding [1]: no binding
- binding [2]: no binding
- binding [3]: no binding (tested: 20 nM)
